Experimental data taken from US20130079280A1.
No constants are given. Whether binding was seen depends on the method and setting. Some entries that bind do so weakly or less than the wild type.

The chains behind the UniProt entries cited, without tags or fusion partners. Residues count along the entry.
UniProt O14763, residues 54-182: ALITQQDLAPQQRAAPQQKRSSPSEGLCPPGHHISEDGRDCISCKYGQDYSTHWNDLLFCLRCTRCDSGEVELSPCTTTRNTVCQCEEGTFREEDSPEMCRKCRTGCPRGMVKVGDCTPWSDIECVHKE
UniProt P29965, residues 113-261: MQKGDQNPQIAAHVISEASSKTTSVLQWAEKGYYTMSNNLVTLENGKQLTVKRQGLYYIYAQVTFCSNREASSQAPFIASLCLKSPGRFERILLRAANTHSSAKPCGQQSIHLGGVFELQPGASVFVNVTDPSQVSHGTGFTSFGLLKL

Legend:
[1] = target: human TRAIL R2-Fc fusion protein (human) (UniProt O14763); assay: ELISA
[2] = target: Human CD40L, recombinant (E. coli produced) (human) (UniProt P29965); assay: AlphaScreen
[3] = target: human TRAIL R2-Fc fusion protein (human) (UniProt O14763); assay: AlphaScreen
[4] = target: Human CD40L, recombinant (E. coli produced) (human) (UniProt P29965); assay: AlphaScreen, simultaneous binding
[5] = target: human TRAIL R2-Fc fusion protein (human) (UniProt O14763); assay: AlphaScreen, simultaneous binding
[6] = target: human TRAIL R2-Fc fusion protein (human) (UniProt O14763); assay: ELISA; plate coated with TRAIL R2-Fc, biotinylated Synagis detected
[7] = target: human TRAIL R2-Fc fusion protein (human) (UniProt O14763); assay: bridging ELISA: plate coated with TRAIL R2-Fc (1 ug/ml), D1-1E11-79 titrated, biotinylated Synagis, HRP-streptavidin; signal needs both targets bound at once
[8] = target: Human CD40L, recombinant (E. coli produced) (human) (UniProt P29965); assay: AlphaScreen bridging assay: purified D1-1E11-79, biotinylated huCD40L (streptavidin beads), Synagis titrated 0-42 nM (Protein A beads); signal needs both targets bound at once
[9] = target: Human CD40L, recombinant (E. coli produced) (human) (UniProt P29965); assay: AlphaScreen bridging assay: purified D1-1E11-79, biotinylated huCD40L (streptavidin beads), TrailR2-Fc titrated 0-42 nM (Protein A beads); signal needs both targets bound at once
[10] = target: human TRAIL R2-Fc fusion protein (human) (UniProt O14763); assay: as above
[11] = target: human TRAIL R2-Fc fusion protein (human) (UniProt O14763); assay: competition ELISA; F4 mod 1 coated plate, 0.75 nM human TRAIL R2-Fc

Measured: binding

B1: D1-1E11-79, trispecific/trivalent Tn3 scaffold (designed binder)
chain: IEVKDVTDTTALITWSPGERIWMFTGCELTYGIKDVPGDRTTIDLTEDENQYSIGNLKPDTEYEVSLICPNYERISNPAKETFTTGGGGSGGGGSGGGGSIEVKDVTDTTALITWAKPWVDPPPLWGCELAYGIKDVPGDRTTIDLQQKHTAYSIGNLKPDTEYEVSLICFDPYGAKSNPAKETFTTGGGGSGGGGSGGGGSIEVKDVTDTTALITWIPPHNADSSIIGCELTYGIKDVPGDRTTIDLYDVAFDYSIGNLKPDTEYEVSLICDTFYGFDSNPAKETFTT
not listed: [11]
binds: all other assays above

B2: F4 mod 1, cyno cross reactive TRAIL R2-binding Tn3 monomer (designed binder)
chain: AIEVKDVTDTTALITWAKPWVDPPPLWGCELAYGIKDVPGDRTTIGLQQKHTAYSIGNLKPDTEYEVSLICFDPYGLKSRPAKETFTTGGGTLGHHHHHHHH
binds: [11]
